Assay results published in publication PMC6779757.

Chains of the proteins cited; added tags and fusions are not shown. Lines headed by an entry give the natural chain unless they say otherwise; changes in a name come on top.
UniProt P09237: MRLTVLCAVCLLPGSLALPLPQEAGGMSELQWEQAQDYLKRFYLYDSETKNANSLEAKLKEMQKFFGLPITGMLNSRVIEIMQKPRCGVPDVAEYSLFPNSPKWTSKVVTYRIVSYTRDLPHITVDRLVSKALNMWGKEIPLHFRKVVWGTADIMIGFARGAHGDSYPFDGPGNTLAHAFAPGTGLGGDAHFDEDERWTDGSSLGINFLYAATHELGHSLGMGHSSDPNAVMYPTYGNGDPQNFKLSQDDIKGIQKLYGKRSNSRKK

Tests used:
[1] = target: T1, Golgi phosphoprotein 73 (GP73) (human) (UniProt Q8NBJ4); assay: co-IP; lysates (RIPA buffer) of HepG2 and MHCC-97H cells after GP73 mediation; anti-GP73 mAb or normal rabbit IgG with magnetic beads, 4 °C overnight; MMP-7 detected by immunoblot
T1 sequence: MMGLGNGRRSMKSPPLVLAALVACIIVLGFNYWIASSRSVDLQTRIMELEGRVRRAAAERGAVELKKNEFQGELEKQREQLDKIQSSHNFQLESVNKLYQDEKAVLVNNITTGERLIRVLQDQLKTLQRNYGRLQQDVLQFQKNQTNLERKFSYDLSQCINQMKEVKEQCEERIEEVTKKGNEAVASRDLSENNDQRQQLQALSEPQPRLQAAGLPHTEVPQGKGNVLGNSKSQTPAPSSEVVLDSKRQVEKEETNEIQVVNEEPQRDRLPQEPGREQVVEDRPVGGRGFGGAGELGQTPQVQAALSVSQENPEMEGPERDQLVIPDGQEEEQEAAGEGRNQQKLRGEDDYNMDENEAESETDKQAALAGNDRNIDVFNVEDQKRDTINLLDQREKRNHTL

[2] = target: T2, full-length GP73, FLAG-tagged (pCMV-c-FLAG) (human) (UniProt Q8NBJ4); assay: co-IP; 293 T cells transfected with pCMV-c-FLAG GP73 constructs, 48 h; RIPA lysate; precipitated with rabbit anti-FLAG pAb, blotted with the indicated antibodies
T2 sequence: T1 sequence

binding [1]: binds
binding [2]: binds
Substance: matrix metalloproteinase-7 (MMP-7) (from UniProt P09237)

These are yes or no findings as the source states them, for the method shown. In cells and extracts the contact can be indirect. Binding calls can cover weak binding; strength is not graded here. For some assays here: Sequences can lack the tags named with a protein.
